Values quoted from earlier work, collected in patent publication US20120101157A1, “4,5-Diamino-3-Halo-2-Hydroxybenzoic Acid Derivatives and Preparations Thereof” (NATIONAL DEFENSE MEDICAL CENTER, priority 2010, published 2012).

Molecular target: neuraminidases
Conditions: cited from earlier work

Compound: CC(=O)NC1C(O)C=C(C(=O)O)OC1C(O)C(O)CO (stereo not shown) [DANA, 2-deoxy-2,3-didehydro-N-acetylneuraminic acid]
- Ki: 4 µM
